Measured values as given in patent publication US20210277118A1 (Daiichi Sankyo, published 2021).
Residue numbers refer to the chain shown, from its start. In names and notes the source's numbering stands. These are yes or no findings as the source states them, for the method shown. Some binding calls cover weakened binding; strength is not graded here. For some of these results: Where a sequence is shown, tags or fusion partners need not be part of it.

Amino acid sequences for entries named in this document (tags omitted). Residues count along the entry.
UniProt Q95LI5, residues 22-198: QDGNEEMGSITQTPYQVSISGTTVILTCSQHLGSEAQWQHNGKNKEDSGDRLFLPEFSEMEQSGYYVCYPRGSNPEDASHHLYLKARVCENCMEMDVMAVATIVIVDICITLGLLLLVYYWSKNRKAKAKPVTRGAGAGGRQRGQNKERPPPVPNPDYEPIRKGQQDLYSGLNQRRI
UniProt P07766, residues 23-207: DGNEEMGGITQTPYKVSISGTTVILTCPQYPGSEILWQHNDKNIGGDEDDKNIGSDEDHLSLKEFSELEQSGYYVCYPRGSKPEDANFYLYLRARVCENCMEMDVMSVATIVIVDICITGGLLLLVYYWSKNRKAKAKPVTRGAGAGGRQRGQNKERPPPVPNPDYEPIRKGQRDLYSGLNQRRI

B1: variant 19370, monovalent anti-CD3 scFv-heterodimeric Fc (VL hC3E-1_1L1d, VH hC3E-1) (Fc fusion, not shown: a dimerising Fc or GST; small tags and cut ends)
scFv: EVQLVESGGGLVQPGGSLRLSCAASGVTFNYYGMSWIRQAPGKGLEWVASITNSGGRIYYPDSVKGRFTISRENTQKTLYLQMNSLRAEDTAVYYCTLDGRDGWVAYWGQGTLVTVSSGGGGSGGGGSGGGGSQVVLTQPPSASGTPGQRVTISCKRNTGNIGSNYVNWYQQLPGTAPKLLIYRDDKRPDGVPDRFSGSKSGTSASLAISGLQSEDEADYYCQSYSSGFIFGGGTKLTVL
notes: scFv order VH-(GGGGS)3-VL on Fc chain A; chain B is Fc only; also called v19370
B2: variant 21829, monovalent anti-CD3 scFv-heterodimeric Fc (VL hC3E-1_1L1d, VH hC3E-1(N53R)) (Fc fusion)
scFv: B1 scFv with N53R
notes: scFv order VH-(GGGGS)3-VL on Fc chain A; chain B is Fc only; also called v21829; not shown: Fc-only chain B is also left out
B3: variant 19372, monovalent anti-CD3 scFv-heterodimeric Fc (VL hC3E-1_1L1b, VH hC3E-1) (Fc fusion)
scFv: B1 scFv with V135L
notes: scFv order VH-(GGGGS)3-VL on Fc chain A; chain B is Fc only; also called v19372; not shown: The Fc-only chain B is not tied by number to this variant
B4: variant 21831, monovalent anti-CD3 scFv-heterodimeric Fc (VL hC3E-1_1L1d, VH hC3E-1(N53S)) (Fc fusion)
scFv: B1 scFv with N53S
notes: scFv order VH-(GGGGS)3-VL on Fc chain A; chain B is Fc only; also called v21831; not shown: Fc-only chain B is also left out
B5: variant 21827, monovalent anti-CD3 scFv-heterodimeric Fc (VL hC3E-1_1L1d, VH hC3E-1(N53S_D102E)) (Fc fusion)
scFv: B1 scFv with N53S, D102E
notes: scFv order VH-(GGGGS)3-VL on Fc chain A; chain B is Fc only; also called v21827; not shown: Fc-only chain B is also left out
B6: variant 21825, monovalent anti-CD3 scFv-heterodimeric Fc (VL hC3E-1_1L1d, VH hC3E-1(N53R_D102E)) (Fc fusion)
scFv: B1 scFv with N53R, D102E
notes: scFv order VH-(GGGGS)3-VL on Fc chain A; chain B is Fc only; also called v21825; not shown: Fc-only chain B is also left out
B7: variant 19371, monovalent anti-CD3 scFv-heterodimeric Fc (VL hC3E-1_1L1c, VH hC3E-1) (Fc fusion)
scFv: B1 scFv with V135I
notes: scFv order VH-(GGGGS)3-VL on Fc chain A; chain B is Fc only; also called v19371; not shown: The Fc-only chain B is not tied by number to this variant
B8: variant 19363, monovalent anti-CD3 scFv-heterodimeric Fc (VL hC3E-1_6L3a (D52N), VH hC3E-1) (Fc fusion, not shown: a dimerising Fc or GST; small tags and cut ends)
scFv: EVQLVESGGGLVQPGGSLRLSCAASGVTFNYYGMSWIRQAPGKGLEWVASITNSGGRIYYPDSVKGRFTISRENTQKTLYLQMNSLRAEDTAVYYCTLDGRDGWVAYWGQGTLVTVSSGGGGSGGGGSGGGGSQFVLTQPPSASGTPGQRVTISCKRNTGNIGSNYVNWYQQLPGTAPKTIIYRNDKRPDGVPDRFSGSIDSSSNSASLAISGLQSEDEADYYCQSYSSGFIFGGGTKLTVL
notes: scFv order VH-(GGGGS)3-VL on Fc chain A; chain B is Fc only; also called v19363
B9: variant 19362, monovalent anti-CD3 scFv-heterodimeric Fc (VL hC3E-1_6L3b (D52N), VH hC3E-1) (Fc fusion, not shown: a dimerising Fc or GST; small tags and cut ends)
scFv: B8 scFv with Q134N, V136M, P141H, A143V, G145E, T146S, Q149K, R150T
notes: scFv order VH-(GGGGS)3-VL on Fc chain A; chain B is Fc only; also called v19362
B10: variant 18596, monovalent anti-CD3 scFv-heterodimeric Fc (VL hC3E-1, VH hC3E-1a D102E) (Fc fusion, not shown: a dimerising Fc or GST; small tags and cut ends)
scFv: EVQLVESGGGLVQPGGSLRLSCAASGVTFNYYGMSWIRQAPGKGLEWVASITNSGGRIYYPDSVKGRFTISRENTQKTLYLQMNSLRAEDTAVYYCTLDGREGWVAYWGQGTLVTVSSGGGGSGGGGSGGGGSNFMLTQPHSVSESPGKTVTISCKRNTGNIGSNYVNWYQQHEGSSPTTIIYRDDKRPDGVSDRFSGSIDRSSKSASLTISNLKTEDEADYFCQSYSSGFIFGGGTKLTVL
notes: scFv order VH-(GGGGS)3-VL on Fc chain A; chain B is Fc only; also called v18596
B11: variant 21828, monovalent anti-CD3 scFv-heterodimeric Fc (VL hC3E-1 (D52N), VH hC3E-1(N53S_D102E)) (Fc fusion)
scFv: B10 scFv with N53S, D185N
notes: scFv order VH-(GGGGS)3-VL on Fc chain A; chain B is Fc only; also called v21828; not shown: Fc-only chain B is also left out
B12: variant 21826, monovalent anti-CD3 scFv-heterodimeric Fc (VL hC3E-1 (D52N), VH hC3E-1(N53R_D102E)) (Fc fusion)
scFv: B10 scFv with N53R, D185N
notes: scFv order VH-(GGGGS)3-VL on Fc chain A; chain B is Fc only; also called v21826; not shown: Fc-only chain B is also left out
B13: rat anti-CD3 monoclonal antibody C3-147 (antibody, rat IgG2b, V domains shown)
VH: EVQLVESGGGLVQPGRALKLSCVVSGVTFNYYGMSWIRQAPGKGLEWVASITNSGGRIYYPDSVKGRFTISRENTQKTLYLQMNSLRSEDTATYYCTLDGRDGWVAYWGQGTLVTVSS
VL: QFVLTQPNSVSTNLGTTVELSCKRNTGNIGSNYVNWYQQHEGRSPTTIIYRDDKRPDGVSDRFSGSIDRSSKSALLTINNVQTEDEADYFCQSYSSGFIFGGGTKLTVL
notes: Rat IgG2b with lambda chains (printed 'X chains'); tested as hybridoma culture supernatant
B14: variant 18346, monovalent anti-CD3 scFv-heterodimeric Fc (VL hC3E-1 wildtype, VH hC3E-1 wildtype) (Fc fusion)
scFv: B10 scFv with E102D
notes: scFv order VH-(GGGGS)3-VL on Fc chain A; chain B is Fc only; also called v18346; parental construct v18346; not shown: Fc-only chain B is also left out
B15: variant 19373, monovalent anti-CD3 scFv-heterodimeric Fc (VL hC3E-1_1L1a, VH hC3E-1) (Fc fusion)
scFv: B1 scFv with V135F
notes: scFv order VH-(GGGGS)3-VL on Fc chain A; chain B is Fc only; also called v19373; not shown: The Fc-only chain B is not tied by number to this variant
B16: variant 18343, monovalent anti-CD3 scFv-heterodimeric Fc (VL hC3E-1-1L1, VH hC3E-1) (Fc fusion, not shown: a dimerising Fc or GST; small tags and cut ends)
scFv: B1 scFv with V135S
notes: scFv order VH-(GGGGS)3-VL on Fc chain A; chain B is Fc only; also called v18343

molecular target: cynomolgus monkey CD3 expressed on T cells (cynomolgus pan T cells/PBMC, HSC-F cell line) (cynomolgus monkey) (UniProt Q95LI5); assay: flow cytometry on cynomolgus T cells

| Binder | binding |
| --- | --- |
| B1 | binds |
| B2 | binds |
| B3 | binds |
| B4 | binds |
| B5 | binds |
| B6 | binds |
| B7 | binds |
| B8 | binds |
| B9 | binds |
| B10 | binds |
| B11 | binds |
| B12 | binds |

molecular target: cynomolgus monkey CD3 expressed on T cells (cynomolgus pan T cells/PBMC, HSC-F cell line) (cynomolgus monkey) (UniProt Q95LI5); assay: flow cytometry on cynomolgus T cell line HSC-F, hybridoma supernatant

| binding | Binder |
| --- | --- |
| binds | B13 |

molecular target: human CD3 expressed on T cells (Jurkat cells, human pan T cells/PBMC) (human) (UniProt P07766); assay: cell ELISA on CD3+ Jurkat cells, HRP anti-human IgG Fc secondary, A 450 nm

| Binder | binding |
| --- | --- |
| B2 | binds |
| B4 | binds |
| B12 | binds |

molecular target: human CD3 expressed on T cells (Jurkat cells, human pan T cells/PBMC) (human) (UniProt P07766); assay: flow cytometry on human T cells gated CD4+, detection with anti-IgG-Fc, geo MFI

| Binder | binding |
| --- | --- |
| B2 | binds |
| B4 | binds |
| B14 | binds |

molecular target: human CD3 expressed on T cells (Jurkat cells, human pan T cells/PBMC) (human) (UniProt P07766); assay: cell ELISA on CD3+ Jurkat cells, HRP anti-human IgG Fc secondary, OD 450 nm

| binding | Binder |
| --- | --- |
| binds | B1 |
| binds | B15 |
| binds | B3 |
| binds | B7 |
| binds | B8 |
| binds | B9 |

molecular target: human CD3 expressed on T cells (Jurkat cells, human pan T cells/PBMC) (human) (UniProt P07766); assay: cell ELISA on CD3+ Jurkat cells

| binding | Binder |
| --- | --- |
| binds | B1 |
| binds | B16 |
| binds | B15 |
| binds | B3 |
| binds | B7 |
| binds | B8 |
| binds | B9 |
| binds | B10 |

| Binder | binding |
| --- | --- |
| B2 | binds |
| B4 | binds |
| B14 | binds |

molecular target: cynomolgus monkey CD3 expressed on T cells (cynomolgus pan T cells/PBMC, HSC-F cell line) (cynomolgus monkey) (UniProt Q95LI5); assay: flow cytometry on cynomolgus pan T cells gated CD4+, detection with anti-IgG-Fc, geo MFI

| Binder | binding |
| --- | --- |
| B1 | binds |
| B2 | binds |
| B9 | binds |
| B14 | binds |

molecular target: human CD3 expressed on T cells (Jurkat cells, human pan T cells/PBMC) (human) (UniProt P07766); assay: flow cytometry on human T cells

| binding | Binder |
| --- | --- |
| binds | B1 |
| binds | B3 |
| binds | B7 |
| binds | B8 |
| binds | B9 |
| binds | B10 |

| Binder | binding |
| --- | --- |
| B2 | binds |
| B4 | binds |
| B12 | binds |
